Measured values: PubChem BioAssay AID2685 (National Center for Advancing Translational Sciences (NCATS), 2010)
The list shows a part of the results. Further columns of the screen follow, without active or inactive calls. The list favours compounds with an active or inconclusive main result. Words in brackets tell the shape of the fitted curve; partial curves, single points and poor fits give uncertain potencies.

Test: qHTS Assay for Lipid Storage Modulators in Drosophila S3 Cells;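 on cell number change: cells counted by Cell Tracker Red CMTPX staining in the red channel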
Conditions: BODIPY lipid droplet fluorescence, 18-24 h; for cell number change: measured here: cell count max response, cells fed with added oleic acid
In short: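 Laser-scanning cytometry quantifies lipid droplet accumulation (500–530 nm total intensity; droplet/cell object ratio) in oleic acid-fed (400 uM added) Drosophila S3 cells treated with a concentration series. 20 uM Triacsin C defined 100% inhibition.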

[1] = measured here: lipid fluorescence (Fed channel) AC50, cells fed with added oleic acid
[2] = measured here: cell number channel AC50, cells fed with added oleic acid

Row | SMILES | cell number change [%] | AC50 [1] | AC50 [2]
1 | COc1ccc(N(C(=O)CNC(=O)c2ccco2)C(C(=O)NCC2CCCO2)c2ccc(OC)c(OC)c2)cc1 (centres undefined) | -1.9 | 6.51 µM [rising, single point] | –
2 | COc1cc2c(cc1OC)CN(CC(=O)Nc1ccccc1SC)CC2 | – | 2.91 µM [rising, single point] | –
3 | COc1nc(-c2ccccc2)cc(-c2ccccc2)n1 | 5.03 | 1.46 µM [rising, partial curve, poor fit] | –
4 | COc1ccccc1C(=O)O/N=C1/CCCc2c1ccc(OC)c2[N+](=O)[O-] | 55.9 | 0.651 µM [falling, single point] | 3.26 µM [rising, full curve]
5 | Cn1c(C2CCCCC2)nc2cc(N)ccc21 | – | 0.13 µM [rising, full curve, poor fit] | –
6 | COc1ccc(-c2noc(CCC(N)=O)n2)cc1OC | 28 | 6.51 µM [falling, single point] | –
7 | COC(=O)C1CCN(C(=O)c2ccc(NC(C)=O)cc2)CC1 | 2.86 | 29.1 µM [falling, single point] | –
8 | COc1ccc(CCNC(=O)CSc2nnc(Cn3c(=O)sc4ccccc43)n2C)cc1OC | -19.4 | 18.4 µM [falling, single point] | –
9 | CCOc1ccc(C(Nc2ccc(C)cc2)P2(=O)OCCCO2)cc1 (centres undefined) | -37.9 | – | –
10 | CCOC(=O)Cc1csc(NC(=O)c2ccc3ncsc3c2)n1 | -14.1 | 0.058 µM [falling, full curve, poor fit] | –
11 | COc1ccccc1C(=O)Nc1nc(-c2ccc(S(=O)(=O)N3CCOCC3)cc2)cs1 | -70.5 | 6.51 µM [rising, single point] | 5.17 µM [falling, full curve]
12 | CCC(=O)Nc1nonc1-c1nc2ccccc2n1CC(C)C | 4.67 | 1.64 µM [rising, full curve] | –
13 | O=C(O)CCCCCNS(=O)(=O)c1cccc2nsnc12 | -30.4 | 29.1 µM [falling, single point] | 2.31 µM [falling, full curve, poor fit]
14 | CCC(=O)NCc1cc(-c2nn(C)c(=O)c3ccccc23)ccc1OC | 22.6 | 16.4 µM [rising, partial curve, poor fit] | –
15 | COc1ccc(NC(=O)N2CCOCC2)cc1 | 21.1 | 29.1 µM [rising, single point] | 5.17 µM [rising, partial curve]
16 | Cn1nnnc1SCc1ccc(C(=O)Nc2nccs2)cc1 | -30.8 | – | 25.9 µM [falling, partial curve, poor fit]
17 | Clc1ccccc1Cn1nnc2c(N3CCCC3)ncnc21 | 21.9 | 3.66 µM [rising, full curve] | 3.66 µM [rising, single point]
18 | O=C(c1ccc(F)cc1)c1cn(Cc2ccc(F)cc2)c2cc3c(cc2c1=O)OCCO3 | 33.5 | – | 9.2 µM [rising, partial curve]
19 | CCCOc1cccc(NC(=O)c2cc(C)oc2C)c1 | -22.3 | – | –
20 | Cc1ccc(OCCCCn2ccnc2C)c(C)c1 | -50.7 | 20.6 µM [falling, single point] | –

Row | SMILES | cell number change [%] | AC50 [1] | AC50 [2]
21 | COC(=O)c1ccccc1NC(=S)NC(=O)COc1ccccc1Cl | -6.66 | 6.51 µM [falling, single point] | 3.66 µM [falling, single point]
22 | COC(=O)c1scc(C)c1N1C(=O)c2ccccc2C1=O | 22.6 | 32.6 µM [rising, single point] | –
23 | Cc1noc(C)c1CC(=O)Nc1ccc2c(c1)OCO2 | 30.1 | 0.082 µM [rising, full curve, poor fit] | 29.1 µM [rising, single point]
24 | COc1cccc(NC(=O)Cn2nnc(C(=O)Nc3cc(Cl)ccc3OC)c2N)c1 | 46.6 | – | 0.517 µM [rising, partial curve, poor fit]
25 | CCc1nc2sc(C)c(C)c2c(=O)n1CCO | – | 1.64 µM [falling, partial curve] | –
26 | CCOC(=O)C1=C(C)N(C)C(C)=C(C(=O)OCC)C1c1ccsc1 | -24 | 0.92 µM [rising, full curve] | 0.731 µM [rising, single point]
27 | Cn1cc(CNC(=O)c2sc3cccc(Cl)c3c2Cl)cn1 | -45.5 | 16.4 µM [falling, partial curve] | 16.4 µM [falling, partial curve]
28 | CCCCn1c(N)c(N(Cc2ccccc2OC)C(=O)COc2ccc(F)cc2Cl)c(=O)[nH]c1=O | 16.8 | 29.1 µM [falling, single point] | –
29 | CCN(CC)CCn1c2c(c(SCC(=O)Nc3nc4ccccc4s3)nc1=O)CCC2 | – | 0.00461 µM [falling, full curve, poor fit] | –
30 | O=C(c1ccccc1Br)N1CCN(Cc2ccc3c(c2)OCO3)CC1 | -22.8 | 29.1 µM [rising, single point] | –
31 | CCN(C(=O)CCCC(=O)N(CC)c1ccccc1)c1ccccc1 | 3.24 | 16.4 µM [rising, single point] | –
32 | COc1cc(OC)cc(-c2nnc(NC(=O)CCS(=O)(=O)c3ccccc3)o2)c1 | – | – | 6.51 µM [rising, single point]
33 | CCCC(=O)Nc1ccc(Nc2ccccc2)cc1 | -3.66 | – | –
34 | O=C(CSc1nnc2ncccn12)Nc1cccc2ccccc12 | 2.5 | – | –
35 | CC(=O)N1c2ccc(S(=O)(=O)N(C)c3cc(C)ccc3C)cc2CC1C (centres undefined) | -20.4 | 0.92 µM [falling, full curve, poor fit] | –
36 | C[C@@H]1CCC(=O)N(C[C@@H](C)CC#N)CC1 | 23.3 | – | –
37 | O=C(Nc1ccc(C(=O)O)cc1)/C(=C\c1ccc2c(c1)OCO2)NC(=O)c1ccc(Br)cc1 | -48.7 | 20.6 µM [falling, single point] | 1.16 µM [falling, full curve]
38 | O=C(C1CCCN(c2ncnc3c2nc2n3CCCCC2)C1)N1CCN(c2cccc(Cl)c2)CC1 (centres undefined) | -17 | – | –
39 | CCCCN(C(=O)CSCc1c(C)noc1C)c1c(N)n(CCCC)c(=O)[nH]c1=O | -25 | 29.1 µM [rising, single point] | 0.00461 µM [falling, full curve, poor fit]
40 | COc1ccc(-c2cc(C(=O)N3CCCCCC3)no2)cc1OC | -6.09 | – | –

Complete entries, quoted from the list. Values in the order: cell number change [%]	AC50 [1]	AC50 [2]
O=C(O)CCCCCNS(=O)(=O)c1cccc2nsnc12 is entered as -30.4	29.1 µM [falling, single point]	2.31 µM [falling, full curve, poor fit]
Clc1ccccc1Cn1nnc2c(N3CCCC3)ncnc21 is entered as 21.9	3.66 µM [rising, full curve]	3.66 µM [rising, single point]
CCCOc1cccc(NC(=O)c2cc(C)oc2C)c1 is entered as -22.3	–	–
COC(=O)C1CCN(C(=O)c2ccc(NC(C)=O)cc2)CC1 is entered as 2.86	29.1 µM [falling, single point]	–

(next part)

Row | SMILES | cell number change [%] | AC50 [1] | AC50 [2]
41 | COc1ccc(C[C@H]2CN3C(=NC[C@@H]3Cc3ccc(O)cc3)N2CCNC(=O)c2ccc(C)c(Br)c2)cc1 | -7.53 | 3.26 µM [falling, single point] | –
42 | CCC(C)c1ccc(OCCn2ccnc2)cc1 (centres undefined) | – | 0.58 µM [rising, single point] | –
43 | O=C(NCc1cc(C(F)(F)F)ccc1F)C1CCC(=O)N(C2CCCCCC2)C1 (centres undefined) | 57.4 | – | 18.4 µM [rising, single point]
44 | Cc1ccc(S(=O)(=O)N2CCCC2=O)c(C)c1N(C)S(C)(=O)=O | 11.3 | 0.58 µM [rising, single point] | –
45 | C/C(=N\NC(=O)c1cc(-c2ccncc2)nc2ccccc12)c1ccc(OC(F)F)cc1 | 77.1 | 4.11 µM [rising, partial curve, poor fit] | 4.61 µM [rising, full curve]
46 | OC(CN1CCCCC1)Cn1c2ccc(Cl)cc2c2cc(Cl)ccc21 (centres undefined) | -57.3 | 20.6 µM [falling, single point] | 29.1 µM [falling, single point]
47 | CCc1ccc2[nH]c(=O)c(CN(CCCN3CCOCC3)C(=O)Nc3ccc(Cl)cc3)cc2c1 | 19.1 | 25.9 µM [rising, single point] | –
48 | CNC(=O)C1CCC(=O)N1Cc1ccc(C)cc1 (centres undefined) | -35.9 | 29.1 µM [falling, single point] | 29.1 µM [falling, single point]
49 | O=C(c1ccco1)[C@@H]1[C@@H]2C(=O)N(c3ccc(F)cc3)C(=O)[C@@H]2[C@H]2C=Cc3ccccc3N21 | -13.6 | – | –
50 | COCCNC(=O)NC(=O)COC(=O)c1cccn1C | -33 | 1.03 µM [falling, full curve, poor fit] | 0.82 µM [falling, full curve, poor fit]
51 | COc1ccc(/C(N)=N/OC(=O)c2ccc3c(c2)OCO3)cc1 | 2.88 | 0.411 µM [rising, full curve, poor fit] | –
52 | NC(=O)C1CCN(C2=C(NS(=O)(=O)c3ccc(Br)cc3)C(=O)c3ccccc3C2=O)CC1 | -21.8 | – | –
53 | O=C(C1CCCCC1)N1CC(=O)N2CCc3ccccc3C2C1 (centres undefined) | -7.63 | 10.3 µM [rising, partial curve, poor fit] | –
54 | O=C(NCc1ccco1)C1CCCN(S(=O)(=O)c2ccccc2)C1 (centres undefined) | – | 0.116 µM [falling, full curve, poor fit] | –
55 | O=C(O)CCn1c(=O)n(CCC(=O)O)c(=O)n(CCC(=O)O)c1=O | -19.2 | 18.4 µM [falling, single point] | –
56 | Cc1nnc(-c2cccc(Br)c2)c2cn(-c3ccccc3)nc12 | -7.54 | 20.6 µM [rising, partial curve, poor fit] | –
57 | C[C@]1(C(=O)O)Cc2oncc2C[C@@H]1C(=O)O | -66.7 | – | 32.6 µM [falling, partial curve, poor fit]
58 | O=C(NC(Cc1ccccc1)c1nc2ccccc2[nH]1)c1ccc(Cl)c([N+](=O)[O-])c1 (centres undefined) | – | 29.1 µM [falling, single point] | –
